Measured values: PubChem BioAssay AID651640 (Broad Institute, 2012)
Several values for one entry are separate records, joined by “and”; a condition that tells them apart may be missing. Identical values can stand only once. About 6,000 (1.7%) of roughly 350,000 compounds were called active. Inconclusive means that the source gave no clear call. Such entries were picked first, then a sample of the others. No stated cut-off is given here; in the data, active means CPE inhibition above about 20% (passing the limit was not always enough); inconclusive means no clear call, values can overlap the other calls; tested in BHK-21 cells.

Experiment: protection of cells from dengue 2 killing – plate reader, single concentration, primary screen (AID 651640);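 further: 0% = median of neutral control wells and 100% = median of positive control wells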
Conditions: DENV2-infected cells, cytopathic effect rescue, at 9.99 µM, stronger effect = higher value

Row | Compound | CPE inhibition
1 | CN1c2ccc(Br)cc2[C@@H]2[C@@H](CCN2C(=O)C2CCCCC2)[C@H]1CO | inactive: 8.19%
2 | O=C(NCc1ccccc1)[C@H]1[C@H](CO)[C@H]2Cn3c(ccc(-c4cccc(F)c4)c3=O)[C@@H]1N2 | inactive: 7.29%
3 | O=C(Nc1cc(C(F)(F)F)ccc1N1CCOCC1)c1ccncc1 | inactive: 7.13%
4 | COc1ccccc1CCc1nnc(CCC(=O)NCCCOc2cccnc2)o1 | inconclusive: 30.6%
5 | COc1ccccc1S(=O)(=O)N[C@H]1CC[C@@H](CCNC(=O)C2CCCCC2)O[C@H]1CO | inconclusive: 25.8%
6 | O=C(NCCNC(=O)c1cc(F)cc(F)c1)c1cc(F)cc(F)c1 | active: 29.6%
7 | C[C@H](CO)N1C[C@H](C)[C@@H](CN(C)Cc2ccc(C(F)(F)F)cc2)Oc2ccc(NC(=O)NC3CCCCC3)cc2C1=O | inconclusive: 21.8%
8 | Cc1ccc(N(CC#N)C(=O)CS(=O)(=O)c2cccc([N+](=O)[O-])c2)cc1 | inconclusive: 21.3%
9 | C#CCN1C(=O)[C@]2(OCCC=C[C@H]2C)c2ccccc21 | active: 77.1%
10 | CC(C)C(=O)Nc1ccc2c(c1)C(=O)N(C)[C@H]1CC[C@@H](CC(=O)NCC3CC3)O[C@@H]1CO2 | inconclusive: 30.5%
11 | Cc1cccc(-c2ccc([C@@H]3[C@@H](CO)N4CCCCN(S(=O)(=O)c5cccc(C)c5)C[C@H]34)cc2)c1 | inactive: -7.44%
12 | COc1ccc(C)cc1NC(=O)c1cnc2scc(C)n2c1=O | inconclusive: 22.2%
13 | CCC(=O)N1C[C@H](C)[C@H](OC)CN(C)C(=O)c2cc(NC(=O)COC)ccc2OC[C@H]1C | active: 20.7%
14 | CCCC(C(=O)NC(C)(C)C)N(CC1CCCO1)C(=O)CNS(=O)(=O)c1ccc(F)cc1 (centres undefined) | inconclusive: 24.9%
15 | C[C@H]1CN([C@@H](C)CO)C(=O)c2cccc(NC(=O)Nc3ccc(F)cc3)c2O[C@@H]1CN(C)CC1CCCCC1 | inconclusive: 35%
16 | Cc1cc(C)n2cc(CSc3nnc(-c4ccccc4)c(-c4ccccc4)n3)nc2n1 | inactive: 4.72%
17 | CC(C)NC(=O)Nc1ccc2c(c1)CC(=O)N([C@H](C)CO)C[C@H](C)[C@H](CN(C)Cc1ccc(Oc3ccccc3)cc1)O2 | inconclusive: 27.8%
18 | C[C@@H]1CN([C@@H](C)CO)S(=O)(=O)c2ccc(C#CC3(O)CCCC3)cc2O[C@H]1CN(C)C(=O)c1ccncc1 | inconclusive: 38.8%
19 | CCOC(=O)Cn1nc(C)n(-c2c(C)cccc2C)c1=O | inactive: -11.9%
20 | COc1ccc2c3c(n(C)c2c1)[C@@H](CO)N(C(=O)NC(C)C)CC31CCN(CC2CC2)CC1 | inactive: -0.738%
21 | CCOc1ccc(C2C(C(=O)NC)=C(C)Nc3nc4ccccc4n32)cc1OC (centres undefined) | inconclusive: 22.2%
22 | NNC(=O)CSCc1nc(-c2ccc(Cl)cc2)cs1 | inactive: 3.26%
23 | O=C(Cc1ccccc1F)Nc1cc(Cl)ccc1N1CCCC1 | inconclusive: 31.2%
24 | Cc1ccccc1Nc1nc(N)nc(-c2oc3ccccc3c2C)n1 | active: 68.7%
25 | COc1ccc(NC(=O)C(c2ccc(C)cc2)N(C)C(=O)Cc2cccs2)cc1 (centres undefined) | inconclusive: 23.2%

Row | Compound | CPE inhibition
26 | O=C(C[C@@H]1CC[C@H]2[C@@H](COC[C@@H](O)CN2Cc2ccc3c(c2)OCO3)O1)Nc1ccccc1 | inconclusive: 20.9%
27 | C[C@@H]1CN([C@H](C)CO)C(=O)Cc2cc(NC(=O)C3CC3)ccc2O[C@@H]1CN(C)C | inconclusive: 26.6%
28 | COc1cc(CNc2ncnc3c2ncn3[C@H]2CN(Cc3ccncc3)C[C@@H](CO)O2)cc(OC)c1OC | inconclusive: 47.4%
29 | Cc1noc(C)c1S(=O)(=O)Nc1ccc2c(c1)CC(=O)N([C@H](C)CO)C[C@H](C)[C@H](CN(C)S(C)(=O)=O)O2 | inactive: 15.4%
30 | Cc1ccc(NC(=O)COc2ccc(N(C)C(=O)C(C)(C)C)cc2)cc1S(=O)(=O)N1CCCCC1 | inconclusive: 43.4%
31 | COc1ccccc1S(=O)(=O)N[C@H]1C=C[C@H](CC(=O)NCc2cc(F)cc(F)c2)O[C@@H]1CO | inconclusive: 30.4%
32 | CC1(c2nnc(-c3ccncc3)o2)CC(c2ccccc2)=NO1 (centres undefined) | inconclusive: 42%
33 | CCc1cnc(N2[C@H](C#N)[C@@H](c3ccccc3C3=CCCCC3)[C@@H]2CO)s1 | inconclusive: 22%
34 | COc1ccc2c3c([nH]c2c1)[C@H](CO)N(Cc1cccc(F)c1)CC31CN(Cc2ccccn2)C1 | active: 23.1%
35 | OC1CCCCC1 | active: 67.4%
36 | CNC[C@@H]1Oc2cc(Br)ccc2S(=O)(=O)N([C@H](C)CO)C[C@H]1C | inconclusive: 37.3%
37 | COc1ccc(-c2ccc([C@H]3[C@H](CO)N4CCCCN(C(=O)NC(C)C)C[C@@H]34)cc2)cc1 | active: 40.2%
38 | Cc1ccc(NS(=O)(=O)c2cc(N)ccc2Cl)c(C)c1 | inconclusive: 20.8%
39 | Cc1cc(NC(=O)C2C3C(=O)N(c4cccnc4)C(C(=O)NC(C)(C)C)C34C=CC2(C)O4)no1 (centres undefined) | inactive: 1.6%
40 | CCCNC(=O)N1C[C@@H]2N[C@H](C1)C2c1ccc(-c2ccccc2C)cc1 (some centres undefined) | active: 26.7%
41 | C[C@H]1CN([C@@H](C)CO)C(=O)c2cccc(NS(=O)(=O)c3ccccc3)c2O[C@@H]1CN(C)Cc1ccc2c(c1)OCO2 | inactive: 3.54%
42 | CS(=O)(=O)Nc1ccc2c(c1)[C@@H]1C[C@@H](CC(=O)NCC(F)(F)F)O[C@@H](CO)[C@@H]1O2 | inconclusive: 27.5%
43 | CN(C)C(=O)C[C@@H]1C[C@@H]2c3cc(NS(=O)(=O)c4ccc(F)cc4)ccc3O[C@@H]2[C@H](CO)O1 | inconclusive: 27.6%
44 | O=C(CCS(=O)(=O)c1ccc(F)cc1)Nc1nnc(-c2cccs2)o1 | inconclusive: 39.6%
45 | O=C(O)C[C@H]1C=C[C@@H](NC(=O)CCN2CCCCC2)[C@@H](CO)O1 | active: 96.9%
46 | COc1cccc(NC(=O)N(C)C[C@H]2OCc3ccccc3-c3ccccc3C(=O)N([C@H](C)CO)C[C@H]2C)c1 | inconclusive: 30.8%
47 | CCC(c1nc2ccccc2[nH]1)n1c(-c2cnccn2)nc2ccccc21 (centres undefined) | inconclusive: 37%
48 | COc1ccc(Cl)cc1NC(=O)CSc1nc(N2CCOCC2)nc(N2CCOCC2)n1 | inactive: -13.1%
49 | C[C@@H]1CN([C@@H](C)CO)C(=O)c2cccc(NC(=O)Nc3ccccc3)c2O[C@H]1CN(C)S(=O)(=O)c1cn(C)cn1 | inactive: -7.31%
50 | CCC(=NCCc1ccc(OC)c(OC)c1)c1ccccc1O | inconclusive: 25.7%

Row | Compound | CPE inhibition
51 | Cc1sc2cc3c(c(C(=O)c4ccccc4)[n+]2c1C)-c1cccc2cccc-3c12 | active: 36.4%
52 | Cc1ccccc1NC(=O)/C(=C/c1cccs1)NC(=O)c1ccco1 | active: 26.8%
53 | O=C(Cn1cc(COc2ccc(Cl)c(Cl)c2)nn1)NS(=O)(=O)c1ccccc1C(F)(F)F | inconclusive: 40.1%
54 | O=C(c1ccccc1)N1CC[C@@H]2[C@@H](CO)Nc3ccc(C#Cc4cccc(F)c4)cc3[C@@H]21 | active: 23.3%
55 | COc1ccc(NC(=O)N(C)C[C@H]2OCCCC[C@H](C)Oc3ccc(NC(=O)c4ccncc4)cc3C(=O)N([C@@H](C)CO)C[C@@H]2C)cc1 | active: 49%
56 | C[C@H]1CN([C@@H](C)CO)C(=O)CCCn2cc(nn2)CO[C@@H]1CN(C)C(=O)Oc1ccccc1 | inconclusive: 35.9% and inconclusive: 20.7%
57 | COc1ccc(NC(=O)Nc2ccc3c(c2)C(=O)N([C@@H](C)CO)C[C@H](C)[C@@H](CN(C)Cc2ccc4c(c2)OCO4)O3)cc1 | active: 31.5%
58 | O=C(c1ccccc1)N1[C@H](CO)[C@H](c2ccccc2)C12CN(CCC(F)(F)F)C2 | active: 20.1%
59 | CCCNC(=O)N(C)C[C@H]1Oc2ncc(/C=C/c3ccccc3)cc2C(=O)N([C@@H](C)CO)C[C@H]1C | inconclusive: 4.62%
60 | OC(c1ccccc1)c1nc(-c2ccc3c(c2)OCO3)cs1 (centres undefined) | inconclusive: 22%
61 | Cc1ccc(Cl)c2sc(NC(=O)C3=COCCO3)nc12 | inconclusive: 26.4%
62 | Cc1ccc(S(=O)(=O)N(C)C[C@H]2Oc3ccc(NC(=O)C4CCCCC4)cc3CC(=O)N([C@@H](C)CO)C[C@@H]2C)cc1 | inactive: 5.74%
63 | CCn1c2ccccc2c2cc(/C=C(/C#N)C(N)=S)ccc21 | inconclusive: 39.9%
64 | C[C@@H]1CN([C@@H](C)CO)C(=O)c2cc(NS(=O)(=O)c3ccccc3)ccc2O[C@@H]1CN(C)C(=O)Nc1ccc2c(c1)OCO2 | active: 49.1%
65 | O=C(C1CCC(CNc2c(N3CCCCC3)c(=O)c2=O)CC1)N1CCN(c2ccccn2)CC1 (centres undefined) | inconclusive: 20.2%
66 | CN(C)C(CNC(=O)c1ccccc1C(F)(F)F)c1ccco1 (centres undefined) | inactive: 0.622%
67 | O=C(OC(C(=O)NCc1ccccc1)c1ccco1)c1ccccc1 (centres undefined) | active: 38%
68 | O=C(COC(=O)c1ccc(Cl)nc1)NCCNC(=O)COC(=O)c1ccc(Cl)nc1 | inactive: -6.85%
69 | COc1cc(NC(=O)CSCc2ccc(Cl)cc2Cl)c(C(=O)O)cc1OC | inactive: -0.623%
70 | CCCc1cc(CNC(=O)C2CCC(=O)N(CCc3cccc(F)c3)C2)on1 (centres undefined) | active: 54.6%
71 | CC1CCCN(C(=O)C(C)Nc2cc(Cl)ccc2N2CCOCC2)C1 (centres undefined) | inactive: 5.3%
72 | Cc1cc(=O)[nH]c(SCC(=O)Nc2ccc(C)c(S(=O)(=O)N3CCCCC3)c2)n1 | inconclusive: 25.4%
73 | C[C@@H]1CN([C@@H](C)CO)C(=O)CCCn2nncc2CO[C@@H]1CN(C)C(=O)Nc1ccc2c(c1)OCO2 | inconclusive: 27.1%
74 | COc1ccc(CN(C)C[C@@H]2OCCCC[C@@H](C)Oc3ccc(NC(=O)CCC(F)(F)F)cc3C(=O)N([C@H](C)CO)C[C@H]2C)cc1 | active: 30.1%
